Data from publication PMC7657459, “A second hybrid-binding domain modulates the activity of Drosophila ribonuclease H1”.
These are yes or no findings as the source states them, for the method shown. Binding seen in cells or lysates may run through a third protein. Here binding means that the protein was enriched with, or labelled near, the bait; the list need not be complete.

Chains of the proteins cited; added tags and fusions are not shown. Lines headed by an entry give the natural chain unless they say otherwise; changes in a name come on top.
UniProt A1Z769: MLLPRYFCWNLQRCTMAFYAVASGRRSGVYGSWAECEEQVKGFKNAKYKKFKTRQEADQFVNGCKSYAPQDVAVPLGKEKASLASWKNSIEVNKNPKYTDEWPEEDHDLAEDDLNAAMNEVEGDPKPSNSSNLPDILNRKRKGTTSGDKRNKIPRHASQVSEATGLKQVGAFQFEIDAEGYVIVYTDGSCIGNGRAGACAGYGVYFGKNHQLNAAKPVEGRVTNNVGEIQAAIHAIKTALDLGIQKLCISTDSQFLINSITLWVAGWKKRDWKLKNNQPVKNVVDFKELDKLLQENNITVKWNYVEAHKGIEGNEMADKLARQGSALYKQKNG

B1: Peroxiredoxin 5 (protein, UniProt Q960M4 1-190)
chain: MRVLSCKFLGRVVNSALPQQIISLRSLSKTSAAMVKVGDSLPSVDLFEDSPANKINTGDLVNGKKVIIFGVPGAFTPGCSKTHLPGYVSSADELKSKQGVDEIVCVSVNDPFVMSAWGKEHGAAGKVRLLADPAGGFTKALDVTIDLPPLGGVRSKRYSLVVENGKVTELNVEPDGTGLSCSLANNIGKK
B2: Peroxiredoxin 3 (protein, UniProt Q9VEJ0 31-234)
chain: LHQTAPLAAVRVQQPAPDFKGLAVVDNSFQEVKLEDYRGKYLVLFFYPLDFTFVCPTEIVAFSERIKEFHDINTEVLGVSVDSHFSHLTWCNVDRKNGGVGQLKYPLLSDLTKKISADYDVLLDKEGISLRGTFIIDPNGILRQYSINDLPVGRSVDEVLRLIKAFQFVEQHGEVCPANWNPNSNPATIKPDVEESKKYFSKHG
B3: Sniffer (protein, UniProt Q9W3H4 1-247)
chain: MNSILITGCNRGLGLGLVKALLNLPQPPQHLFTTCRNREQAKELEDLAKNHSNIHILEIDLRNFDAYDKLVADIEGVTKDQGLNVLFNNAGIAPKSARITAVRSQELLDTLQTNTVVPIMLAKACLPLLKKAAKANESQPMGVGRAAIINMSSILGSIQGNTDGGMYAYRTSKSALNAATKSLSVDLYPQRIMCVSLHPGWVKTDMGGSSAPLDVPTSTGQIVQTISKLGEKQNGGFVNYDGTPLAW
B4: Mitochondrial elongation factor Ts (protein, UniProt Q9VJC7 19-318)
chain: AGSGGSGGLEKSALAALRKKTGYTFANCKKALEKHNNDVGLAEKWLHEQAQTLGWSKATKVADRATAHGLIGVLIRGNRGAMVELNCETDFVARNDTFKRFVDHVACMCLQYTDLTDFDGDLWKLGFDADALRNLRTEEGRTLGDHLALLIGAIGENATIRRALCFKANNDLKLVGYAHPAPTNVGTTEGITQVGKYGAIVAYRSTHPLLDFEFHKSICQQIVGMKPTKIGEYDKDKPAENKDDETCLIHQEYLLDADKTVGEALQEHNCEIVDYHRFECGEHTERSLEAIIRSQHQSSN
B5: NADH-ubiquinone oxidoreductase 75 kDa subunit (protein, UniProt Q94511 28-731)
chain: SAMVAQTPAKAPEKIEVFVDDIPVQVVPGTTVLQAAAQIGVEIPRFCYHERLAVAGNCRMCLVEVEKSPKPVAACAMPVMKGWRIKTNSDLTRKAREGVMEFLLMNHPLDCPICDQGGECDLQDQAMAFGSDRSRFTDINYTGKRAVEDKDIGPLVKTIMTRCIHCTRCVRFASEIAGVDDLGTTGRGNDMQIGTYVEKLFLTELSGNVIDLCPVGALTNKPYSFVARPWEIRKVSSIDVLDAVGSNIVVSTRTNEVLRILPRENEDVNEEWLADKSRFACDGLKRQRLVAPMVRMPNGELQAVEWEGALIAVAKAIKAAGGQIAGISGQLADLEAQVALKDLLNRLGSEVVATEQGFIAGGTDNRANYLLNSTIAGLEEADAVLLVGTNPRYEAPLVNTRLRKAYVHNELQIASIGPKIDLSYDHENLGADAALVKDVCSGAHAFSKVLEGAKKPAIIIGADLLERADGAAIHATVAEYCKKLKKPNWNPFNVLQTNAAQVGALDVGYKAGAQTAVKAQPKVLFLLNADAGKVTREQLPKDCFVVYIGSHGDNGASIADAVLPGAAYTEKQGIYVNTEGRPQQTLPGVSPPGMAREDWKILRALSEVVGKPLPYDNLDELRNRLEDVAPHLTRLGQLEPAGDAGAAGTISKSIGGGAIDIKLKELRDYFMTDAISRASPTMAKCISAVNKQQRENEAKQSVAI

The binders below were run against Drosophila melanogaster ribonuclease H1, V5/His epitope-tagged (Drosophila melanogaster) (UniProt A1Z769) (assay: affinity purification with mass spectrometry; S2 cells expressing the tagged RNase H1 bait, cross-linked in vivo with 1% formaldehyde, RIPA lysis, RNase A/DNase I/Benzonase treatment, anti-V5 immunoprecipitation, LC-MS/MS; hits found in all 5 replicates of a bait and absent from all mtYFP controls).

Row | binding | Binder
1 | binds | B1
2 | binds | B2
3 | binds | B3
4 | binds | B4
5 | binds | B5
